Data from the supplement of paper PMC11409438.
Counter-ions that a name gives are not always drawn. The list shows a part of the results. Repeats are few or missing, and single values can be far off.

Tests used:
[1] = system: Caenorhabditis elegans ST65 (ncIs13[ajm-1::GFP]); assay: 'Larvae/adult' ratio (MetaXpress pharynx counts; minimum value 1, so it appears to include adults; growth inhibition read-out); settings: 10 µM; exposure time: 4-5 days from L1 at 20°C
[2] = system: Caenorhabditis elegans ST65 (ncIs13[ajm-1::GFP]); assay: vulvae per adult worm (MAPK/ERK-dependent vulval induction, MetaXpress) (vulvae/adult); higher = more vulval induction (less MAPK/ERK inhibition); settings: 10 µM; exposure time: 4-5 days from L1 at 20°C

SMILES | 'Larvae/adult' ratio [1] | vulvae per adult worm [2]
COc1cccc2c1C(=O)c1c(O)c3c(c(O)c1C2=O)CC(O)(C(=O)CO)CC3OC1CC(N)C(O)C(C)O1 (configuration not stated) [Doxorubicin (Adriamycin) HCl] | 2.11 | 1.19
COc1cc(C(=O)O)ccc1NC(=O)[C@@H]1N[C@@H](CC(C)(C)C)[C@](C#N)(c2ccc(Cl)cc2F)[C@H]1c1cccc(Cl)c1F [Idasanutlin (RG-7388)] | 1.68 | 0.865
C=CC(=O)N1CCC(Oc2cc3c(Nc4ccc(Cl)c(Cl)c4F)ncnc3cc2OC)CC1 [Poziotinib (HM781-36B)] | 1.97 | 1
COc1cc2c(N3CCN(C(=O)Nc4ccc(OC(C)C)cc4)CC3)ncnc2cc1OCCCN1CCCCC1 [Tandutinib (MLN518)] | 1.35 | 0.86
CO[C@H]1C[C@@H]2CC[C@@H](C)[C@@](O)(O2)C(=O)C(=O)N2CCCC[C@H]2C(=O)O[C@H]([C@H](C)C[C@@H]2CC[C@@H](OCCO)[C@H](OC)C2)CC(=O)[C@H](C)/C=C(\C)[C@@H](O)[C@@H](OC)C(=O)[C@H](C)C[C@H](C)/C=C/C=C/C=C/1C [Everolimus (RAD001)] | 2 | 0.833
CC[C@H](C)C(=O)O[C@H]1C[C@@H](C)C=C2C=C[C@H](C)[C@H](CC[C@@H]3C[C@@H](O)CC(=O)O3)[C@H]21 [Lovastatin] | 2.23 | 1
O=C(O)CC[C@H]1CC[C@@](c2cc(F)ccc2F)(S(=O)(=O)c2ccc(Cl)cc2)CC1 | 2.1 | 0.524
CCN(CC)CCN(Cc1ccc(-c2ccc(C(F)(F)F)cc2)cc1)C(=O)Cn1c(SCc2ccc(F)cc2)nc(=O)c2c1CCC2 | 1.83 | 1
CS(=O)(=O)c1ccc(C(=O)Nc2ccc(Cl)c(-c3ccccn3)c2)c(Cl)c1 [Vismodegib (GDC-0449)] | 4.27 | 0.455
CNC(=O)c1ccc2cc([C@@]3(O)CCn4cncc43)ccc2c1 [TAK-700 (Orteronel)] | 1.96 | 0.935
CN1CC[C@H](c2c(O)cc(O)c3c(=O)cc(-c4ccccc4Cl)oc23)[C@H](O)C1 [Flavopiridol (Alvocidib)] | 2.87 | 0.6
Cc1ccc(C(=O)N(CCCN)[C@@H](c2oc3cc(Cl)ccc3c(=O)c2Cc2ccccc2)C(C)C)cc1 | 2.35 | 0.765
CC/C(=C(\c1ccc(O)cc1)c1ccc(OCCN(C)C)cc1)c1ccccc1 [4-Hydroxytamoxifen] | 5.43 | 1.57
CCS(=O)(=O)N1CC(CC#N)(n2cc(-c3ncnc4[nH]ccc34)cn2)C1 | 2.25 | 0.875
Nc1cc(C(F)(F)F)c(-c2cc(N3CCOCC3)nc(N3CCOCC3)n2)cn1 [Buparlisib (BKM120, NVP-BKM120)] | 1.87 | 1.1
CN1CCC(CNc2ccc3ncc(-c4cccc(OC(F)(F)F)c4)n3n2)CC1 [SGI-1776 free base] | 2.88 | 1.06

SMILES | 'Larvae/adult' ratio [1] | vulvae per adult worm [2]
COc1cc2c(cc1OC(C)C)[C@H](c1ccc(Cl)cc1)N(c1ccc(N(C)C[C@H]3CC[C@H](N4CCN(C)C(=O)C4)CC3)cc1)C(=O)C2 | 2.31 | 1.08
CO[C@H]1CC[C@H](N2C(=O)CNc3ncc(-c4ccc(C(C)(C)O)nc4)nc32)CC1 | 2.46 | 0.769
O=C1CN2Cc3c(ccc(Cl)c3Cl)N=C2N1 [Anagrelide HCl] | 2.12 | 1
C[C@@H](Oc1cc(-n2cnc3ccc(CN4CCN(C)CC4)cc32)sc1C(N)=O)c1ccccc1C(F)(F)F | 1.83 | 0.793
Nc1cc(F)ccc1NC(=O)c1ccc(CNC(=O)/C=C/c2cccnc2)cc1 [Tucidinostat (Chidamide)] | 2.45 | 0.864
CC[C@]1(O)C[C@H]2CN(CCc3c([nH]c4ccccc34)[C@@](C(=O)OC)(c3cc4c(cc3OC)N(C=O)[C@H]3[C@@](O)(C(=O)OC)[C@H](OC(C)=O)[C@]5(CC)C=CCN6CC[C@]43[C@@H]65)C2)C1 [Vincristine sulfate] | 2.67 | 1.05
Cc1nc(=O)c2cc(CN(C)c3ccc(C(=O)N[C@@H](CCC(=O)O)C(=O)O)s3)ccc2[nH]1 [Raltitrexed] | 1.98 | 1.09
C[C@]12CC[C@@H]3c4ccc(O)cc4C[C@@H](CCCCCCCCC[S+]([O-])CCCC(F)(F)C(F)(F)F)[C@H]3[C@@H]1CC[C@@H]2O (some centres not stated) [Fulvestrant] | 1.81 | 0.767
Cc1nc(-c2cn3c(n2)-c2ccc(-c4cnn(C(C)(C)C(N)=O)c4)cc2OCC3)n(C(C)C)n1 [Taselisib (GDC 0032)] | 2.52 | 1.13
Nc1nc(N)c2nc(-c3cccc(O)c3)c(-c3cccc(O)c3)nc2n1 | 1.97 | 0.9
C=CC(=O)Nc1cccc(Oc2nc(Nc3ccc(N4CCN(C)CC4)cc3)nc3ccsc23)c1 | 2.3 | 0.593
COc1cc(CCc2cc(NC(=O)c3ccc(N4CC(C)NC(C)C4)cc3)n[nH]2)cc(OC)c1 (configuration not stated) | 1.87 | 0.516
C[C@]12C=CC(=O)C=C1CC[C@@H]1[C@@H]2[C@@H](O)C[C@@]2(C)[C@H]1CC[C@]2(O)C(=O)CO [Prednisolone] | 1.71 | 1
OC1CCC(Nc2ncc3nc(Nc4c(F)cc(F)cc4F)n([C@H]4CCOC4)c3n2)CC1 (some centres not stated) [Tanzisertib(CC-930)] | 2.26 | 0.947
CC(C)N(CCCNC(=O)Nc1ccc(C(C)(C)C)cc1)C[C@H]1O[C@@H](n2cc(Br)c3c(N)ncnc32)[C@H](O)[C@@H]1O | 1.73 | 0.911

In the list so far, these have an NH in an aromatic ring.
SMILES | 'Larvae/adult' ratio [1] | vulvae per adult worm [2]
CCS(=O)(=O)N1CC(CC#N)(n2cc(-c3ncnc4[nH]ccc34)cn2)C1 | 2.25 | 0.875
CC[C@]1(O)C[C@H]2CN(CCc3c([nH]c4ccccc34)[C@@](C(=O)OC)(c3cc4c(cc3OC)N(C=O)[C@H]3[C@@](O)(C(=O)OC)[C@H](OC(C)=O)[C@]5(CC)C=CCN6CC[C@]43[C@@H]65)C2)C1 [Vincristine sulfate] | 2.67 | 1.05
Cc1nc(=O)c2cc(CN(C)c3ccc(C(=O)N[C@@H](CCC(=O)O)C(=O)O)s3)ccc2[nH]1 [Raltitrexed] | 1.98 | 1.09
COc1cc(CCc2cc(NC(=O)c3ccc(N4CC(C)NC(C)C4)cc3)n[nH]2)cc(OC)c1 (configuration not stated) | 1.87 | 0.516
